According to publication PMC8322311:
Results are given in words; binding and its absence hold for the method and conditions named. In cells and extracts the contact can be indirect. Some results given as binding are weak or reduced against the parent protein; the word gives no strength. Sequences can lack the tags named with a protein. One block for each binder: values may come before it.

Experiments:
HA-PTCH1 = target: T1, HA-PTCH1 (UniProt Q13635); experiment: co-IP; HEK293T cells transfected with Flag-SLITRK5 and HA-PTCH1, with BSA or SHH treatment; Flag or HA agarose; immunoblot
T1 sequence: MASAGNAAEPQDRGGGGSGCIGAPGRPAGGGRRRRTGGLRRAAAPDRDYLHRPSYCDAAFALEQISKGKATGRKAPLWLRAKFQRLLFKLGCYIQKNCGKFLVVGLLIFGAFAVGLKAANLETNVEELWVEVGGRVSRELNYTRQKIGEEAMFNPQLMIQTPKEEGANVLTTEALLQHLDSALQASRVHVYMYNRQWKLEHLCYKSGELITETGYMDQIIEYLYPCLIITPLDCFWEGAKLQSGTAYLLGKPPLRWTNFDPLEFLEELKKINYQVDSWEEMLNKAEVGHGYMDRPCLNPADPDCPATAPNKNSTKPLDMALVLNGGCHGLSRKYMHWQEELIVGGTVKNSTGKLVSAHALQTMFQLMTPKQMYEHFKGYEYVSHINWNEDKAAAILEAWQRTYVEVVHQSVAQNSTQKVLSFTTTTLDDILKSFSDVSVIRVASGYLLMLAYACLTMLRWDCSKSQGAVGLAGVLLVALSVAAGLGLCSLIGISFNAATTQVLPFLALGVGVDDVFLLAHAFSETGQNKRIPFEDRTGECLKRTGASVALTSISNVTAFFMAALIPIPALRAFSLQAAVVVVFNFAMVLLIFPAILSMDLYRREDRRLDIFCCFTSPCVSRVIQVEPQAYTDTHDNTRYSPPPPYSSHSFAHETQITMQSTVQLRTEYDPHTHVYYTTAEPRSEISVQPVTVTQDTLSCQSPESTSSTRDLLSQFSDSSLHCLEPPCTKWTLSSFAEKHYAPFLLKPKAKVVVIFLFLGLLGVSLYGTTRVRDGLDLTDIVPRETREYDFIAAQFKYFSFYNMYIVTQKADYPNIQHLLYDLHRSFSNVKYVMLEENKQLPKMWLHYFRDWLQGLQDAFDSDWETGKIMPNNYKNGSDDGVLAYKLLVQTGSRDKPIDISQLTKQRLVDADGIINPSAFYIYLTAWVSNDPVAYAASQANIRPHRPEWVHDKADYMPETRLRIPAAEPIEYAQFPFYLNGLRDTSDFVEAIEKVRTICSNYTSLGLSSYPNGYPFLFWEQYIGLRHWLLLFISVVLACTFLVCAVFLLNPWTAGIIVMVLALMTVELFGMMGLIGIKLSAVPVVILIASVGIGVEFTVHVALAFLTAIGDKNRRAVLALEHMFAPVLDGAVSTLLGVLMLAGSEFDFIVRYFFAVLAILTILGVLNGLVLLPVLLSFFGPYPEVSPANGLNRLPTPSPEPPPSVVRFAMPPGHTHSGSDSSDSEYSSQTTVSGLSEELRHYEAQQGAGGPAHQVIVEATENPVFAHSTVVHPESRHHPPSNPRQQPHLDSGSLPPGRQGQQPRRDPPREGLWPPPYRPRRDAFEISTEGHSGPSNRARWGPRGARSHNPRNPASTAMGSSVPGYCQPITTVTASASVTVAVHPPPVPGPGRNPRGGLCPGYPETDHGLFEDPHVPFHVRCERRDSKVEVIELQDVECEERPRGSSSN

Flag-SLITRK5 [1] = target: T2, Flag-SLITRK5 (UniProt O94991); experiment: co-IP; C3H10T1/2 cells transfected with Flag-SLITRK5 and HA-PTCH1, with or without SHH (Supplementary Fig. 3e); Flag or HA agarose
T2 sequence: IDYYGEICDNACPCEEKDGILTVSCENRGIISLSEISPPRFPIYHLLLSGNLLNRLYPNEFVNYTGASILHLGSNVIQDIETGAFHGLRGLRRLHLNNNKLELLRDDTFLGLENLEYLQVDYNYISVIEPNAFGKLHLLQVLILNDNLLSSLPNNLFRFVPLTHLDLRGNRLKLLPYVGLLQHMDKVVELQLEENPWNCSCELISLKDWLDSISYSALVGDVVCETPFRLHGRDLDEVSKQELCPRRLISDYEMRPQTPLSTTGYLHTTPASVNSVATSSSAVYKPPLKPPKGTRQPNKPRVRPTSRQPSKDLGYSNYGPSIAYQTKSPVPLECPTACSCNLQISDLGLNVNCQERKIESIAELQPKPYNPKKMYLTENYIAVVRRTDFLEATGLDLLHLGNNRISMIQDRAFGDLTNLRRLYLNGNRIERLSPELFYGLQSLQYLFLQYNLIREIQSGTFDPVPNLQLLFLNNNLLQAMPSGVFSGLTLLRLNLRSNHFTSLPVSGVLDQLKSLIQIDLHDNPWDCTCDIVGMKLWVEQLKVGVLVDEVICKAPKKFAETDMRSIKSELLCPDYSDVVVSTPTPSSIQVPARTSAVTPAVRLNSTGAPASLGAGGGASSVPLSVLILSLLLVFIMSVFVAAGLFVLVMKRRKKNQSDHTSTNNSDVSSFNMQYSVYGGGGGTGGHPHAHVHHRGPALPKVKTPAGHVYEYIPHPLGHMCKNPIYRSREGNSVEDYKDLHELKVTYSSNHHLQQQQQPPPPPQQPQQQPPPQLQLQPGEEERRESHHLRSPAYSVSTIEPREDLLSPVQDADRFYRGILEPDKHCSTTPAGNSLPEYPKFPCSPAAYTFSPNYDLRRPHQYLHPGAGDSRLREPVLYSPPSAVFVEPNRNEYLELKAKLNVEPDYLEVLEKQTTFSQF

Flag-SLITRK5 [2] = target: T2, Flag-SLITRK5; experiment: co-IP; HEK293T cells transfected with Flag-SLITRK5 and HA-PTCH1, with BSA or SHH treatment; Flag or HA agarose; immunoblot

- binding (HA-PTCH1): binds
B1: Flag-SLITRK5 (receptor, UniProt O94991 41-958)
chain: T2 sequence

- binding (Flag-SLITRK5 [1]): binds
- binding (Flag-SLITRK5 [2]): binds
B2: HA-PTCH1 (receptor, UniProt Q13635 1-1447)
chain: T1 sequence
